# According to PubChem BioAssay AID264 (DTP/NCI, 2004):
# The list does not hold the whole screen: it is rich in T/C values a quarter to a half above the control, in often repeated tests (any T/C) and in doses without a T/C. Other doses and runs of a compound stand elsewhere. T/C gives the treated animals as a percentage of the vehicle group. Schedules are NCI's codes, taken here to give the interval after Q, in days (D) or hours (H), and the number of doses after X. Some T/C values are followed by the survivors on the day toxicity was checked, most often the fifth; without a count, all were alive then. Some entries give survivors of the animals treated and no T/C: the source holds a T/C of zero for them, seemingly a mark for toxic or unscored doses. Counts of survivors are from the toxicity check (mostly the fifth day) where no day follows; animals may have died later. Some entries hold several experiments; the results are listed from low to high.
# Tested on: nude mice, LX-1 lung xenograft intrarenal, tumor weight T/C
# Assay: NCI In Vivo Anticancer Drug Screen. Data for tumor model Human Lung LX-1 Xenograft (intrarenal inoculation) in NU/NU Swiss (nude) mice
# Conditions: T/C endpoint: mean tumor weight change, higher T/C = larger tumour; for T/C: evaluated on day 11
# In short: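 Antitumor effect is expressed as a ratio: the mean tumor measurement of the drug-treated group relative to that of the vehicle-dosed control group.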
# [1] = dose: 25.0 mg/kg/injection, schedule: Q01DX010 (sc), vehicle: saline
# [2] = dose: 100.0 mg/kg/injection, schedule: Q01DX010 (sc), vehicle: saline with Tween-80
# [3] = dose: 200.0 mg/kg/injection, schedule: Q01DX010 (sc), vehicle: saline with Tween-80
# [4] = dose: 400.0 mg/kg/injection, schedule: Q01DX010 (sc), vehicle: saline with Tween-80
# [5] = dose: 200.0 mg/kg/injection, schedule: Q01DX010 (sc), vehicle: saline
# [6] = dose: 100.0 mg/kg/injection, schedule: Q01DX010 (sc), vehicle: water
# [7] = dose: 200.0 mg/kg/injection, schedule: Q01DX010 (sc), vehicle: water
smiles,measurement,setting,value
NC(CSC(c1ccccc1)(c1ccccc1)c1ccccc1)C(=O)O (stereo unspecified),survivor count,"dose: 100.0 mg/kg/injection, schedule: Q01DX010 (sc), vehicle: Klucel (hydroxypropylcellulose) (HPC)",0 of 3 on day 11
same,survivor count,"dose: 200.0 mg/kg/injection, schedule: Q01DX010 (sc), vehicle: Klucel (hydroxypropylcellulose) (HPC)",0 of 3 on day 11
Nc1nncs1,T/C,"dose: 6.25 mg/kg/injection, schedule: Q01DX010 (sc), vehicle: saline",134 % of control
same,survivor count,[1],1 of 3 on day 11
same,survivor count,"dose: 50.0 mg/kg/injection, schedule: Q01DX010 (sc), vehicle: saline",0 of 3 on day 11
N#Cc1nc(C#N)c(Sc2ccccc2)c(Sc2ccccc2)c1Sc1ccccc1,T/C,"dose: 25.0 mg/kg/injection, schedule: Q01DX010 (sc), vehicle: saline with Tween-80",142 % of control [2 of 3 alive on day 11]
same,T/C,"dose: 50.0 mg/kg/injection, schedule: Q01DX010 (sc), vehicle: saline with Tween-80",142 % of control
same,survivor count,[2],1 of 3 on day 11
same,survivor count,[3],1 of 2 on day 11
Nc1ncnc2c1ncn2C1C=C(CO)C(O)C1O (stereo unspecified),survivor count,"dose: 30.0 mg/kg/injection, schedule: Q04DX003 (sc), vehicle: saline",1 of 6 on day 11
COC(=O)Nc1ccc(Cc2ccc(NC(=O)OC)cc2)cc1,T/C,[2],131 % of control
same,T/C,[3],128 % of control
same,T/C,[4],135 % of control
Cc1c2cc[n+](C)cc2c(C)c2c1[nH]c1ccc(O)cc12,survivor count,"dose: 3.0 mg/kg/injection, schedule: Q04DX003 (sc), vehicle: water",3 of 6 on day 11
same,survivor count,"dose: 6.0 mg/kg/injection, schedule: Q04DX003 (sc), vehicle: water",0 of 6 on day 11
same,survivor count,"dose: 12.0 mg/kg/injection, schedule: Q04DX003 (sc), vehicle: water",0 of 6 on day 11
COc1cc2cc(c1Cl)N(C)C(=O)CC(OC(=O)C(C)C)C1(C)OC1C(C)C1CC(O)(NC(=O)O1)C(OC)/C=C/C=C(C)C2 (stereo unspecified),T/C,"dose: 25.0 micrograms/kg/injection, schedule: Q01DX010 (sc), vehicle: saline + alcohol",135 % of control
same,survivor count,"dose: 100.0 micrograms/kg/injection, schedule: Q01DX010 (sc), vehicle: saline + alcohol",3 of 6 on day 11
same,survivor count,"dose: 200.0 micrograms/kg/injection, schedule: Q01DX010 (sc), vehicle: saline + alcohol",1 of 6 on day 11
CN(CO)c1nc(N(C)CO)nc(N(C)CO)n1,survivor count,"dose: 25.0 mg/kg/injection, schedule: Q01DX008 (ip), vehicle: saline",0 of 5
same,survivor count,"dose: 50.0 mg/kg/injection, schedule: Q01DX008 (ip), vehicle: saline",0 of 5
same,survivor count,"dose: 100.0 mg/kg/injection, schedule: Q01DX008 (ip), vehicle: saline",0 of 5 and 1 of 5
same,survivor count,"dose: 200.0 mg/kg/injection, schedule: Q01DX008 (ip), vehicle: saline",0 of 5
same,survivor count,[5],0 of 3 on day 11
C1OC1CO[C@@H]1CO[C@H]2[C@@H]1OC[C@H]2OCC1CO1 (stereo partly specified),survivor count,[4],1 of 2 on day 11
COc1cccc2c1C(=O)c1c(O)c3c(c(O)c1C2=O)C[C@@](O)(C(C)=O)C[C@@H]3OC1CC(N(Cc2ccccc2)Cc2ccccc2)C(O)C(C)O1 (stereo partly specified),survivor count,"dose: 50.0 mg/kg/injection, schedule: Q01DX010 (sc), vehicle: water",0 of 3 on day 11
same,survivor count,[6],0 of 3 on day 11
same,survivor count,[7],0 of 3 on day 11
CN(C)C=O,T/C,[5],138 % of control
same,T/C,"dose: 400.0 mg/kg/injection, schedule: Q01DX010 (sc), vehicle: saline",129 % of control
COc1cc2c(c(OC)c1OC)-c1ccc(OC)c(=O)cc1[C@@H](NC(=O)CCl)CC2,survivor count,"dose: 10.0 mg/kg/injection, schedule: Q04DX003 (sc), vehicle: saline with Tween-80",0 of 6 on day 11
CN1N=C(N)c2cn(C3OC(COP(=O)(O)O)C(O)C3O)c3ncnc1c23 (stereo unspecified),survivor count,[6],0 of 3 on day 11
C[C@@]1(CO)[C@H](O)CC[C@@]2(C)[C@H]1CC[C@H]1C[C@@H]3C[C@@]12CC[C@@]3(O)COC(=O)CN,T/C,"dose: 88.6 mg/kg/injection, schedule: Q01DX010 (sc), vehicle: saline + alcohol",137 % of control
same,T/C,"dose: 300.0 mg/kg/injection, schedule: Q01DX010 (sc), vehicle: saline + alcohol",136 % of control [4 of 6 alive on day 11]
same,T/C,"dose: 125.0 micrograms/kg/injection, schedule: Q01DX010 (sc), vehicle: saline + alcohol",131 % of control
same,T/C,"dose: 250.0 micrograms/kg/injection, schedule: Q01DX010 (sc), vehicle: saline + alcohol",125 % of control
C/C=C/c1cc2n(c1)C(=O)c1cc(OC3OC(C)C(NC)C(C)(O)C3O)c(C)c(O)c1NC2O (stereo unspecified),T/C,"dose: 100.0 micrograms/kg/injection, schedule: Q04DX003 (sc), vehicle: saline",128 % of control
Cc1cn(C2CC3[O][Sn]([c]4ccccc4)([c]4ccccc4)[O]CC3O2)c(=O)[nH]c1=O (stereo unspecified),T/C,"dose: 1200.0 mg/kg/injection, schedule: Q04DX003 (sc), vehicle: saline",138 % of control
c1ccc(CN2CCOC2)cc1,T/C,[1],141 % of control
same,T/C,[5],149 % of control
S=c1[nH]cc2cnccn12,T/C,"dose: 600.0 mg/kg/injection, schedule: Q04DX003 (sc), vehicle: saline with Tween-80",145 % of control
CCCCCCCCCCCCCCCC(=O)Nc1ccn(C2OC(CO)C(O)C2O)c(=O)n1 (stereo unspecified),survivor count,"dose: 1200.0 mg/kg/injection, schedule: Q04DX003 (sc), vehicle: water",2 of 6 on day 11
same,survivor count,"dose: 2400.0 mg/kg/injection, schedule: Q04DX003 (sc), vehicle: water",0 of 6 on day 11
O=C(O)C1CSCN1 (stereo unspecified),survivor count,[7],1 of 3 on day 11
same,survivor count,"dose: 400.0 mg/kg/injection, schedule: Q01DX010 (sc), vehicle: water",0 of 3 on day 11
CCOC(=O)[C@]1(Br)CC[C@@]1(Br)C(=O)OCC,T/C,"dose: 100.0 mg/kg/injection, schedule: Q04DX003 (sc), vehicle: saline with Tween-80",142 % of control
same,T/C,"dose: 200.0 mg/kg/injection, schedule: Q04DX003 (sc), vehicle: saline with Tween-80",125 % of control
same,T/C,"dose: 400.0 mg/kg/injection, schedule: Q04DX003 (sc), vehicle: saline with Tween-80",145 % of control
same,survivor count,"dose: 2400.0 mg/kg/injection, schedule: Q04DX003 (sc), vehicle: saline with Tween-80",2 of 6 on day 11
NC(=O)c1ncn(C2OC(CO)C(O)C2O)c1O (stereo unspecified),T/C,"dose: 300.0 mg/kg/injection, schedule: Q04DX003 (sc), vehicle: Klucel (hydroxypropylcellulose) (HPC)",134 % of control
same,T/C,"dose: 600.0 mg/kg/injection, schedule: Q04DX003 (sc), vehicle: Klucel (hydroxypropylcellulose) (HPC)",126 % of control
same,T/C,"dose: 1200.0 mg/kg/injection, schedule: Q04DX003 (sc), vehicle: Klucel (hydroxypropylcellulose) (HPC)",126 % of control
N=C(N)Sc1ccccn1,T/C,"dose: 12.5 mg/kg/injection, schedule: Q01DX010 (sc), vehicle: saline",138 % of control
NC(=O)CC(N)C(=O)O (stereo unspecified),survivor count,"dose: 6400.0 mg/kg/injection, schedule: Q04DX003 (sc), vehicle: saline",3 of 6 on day 11
O=c1[nH]cnc2c1ccn2C1OC(CO)C(O)C1O (stereo unspecified),T/C,"dose: 6.25 mg/kg/injection, schedule: Q04DX003 (sc), vehicle: saline",131 % of control
same,T/C,"dose: 25.0 mg/kg/injection, schedule: Q04DX003 (sc), vehicle: saline",130 % of control [5 of 6 alive on day 11]
